Patent US9150526B2, “Biaryl-propionic acid derivatives and their use as pharmaceuticals” (SANOFI, priority 2013, dated 2015)

Tested on: Recombinant human cathepsin A
Experiment: Cathepsin A inhibitory activity (Bodipy FL-bradykinin substrate, microfluidic capillary electrophoresis)
Type: biochemical
Settings: read-out: CATH A IC50
Method: Pharmacological Tests a) Cathepsin a Inhibitory Activity
Recombinant human cathepsin A (residues 29-480, with a C-terminal 10-His tag; R&D Systems, #1049-SE) was proteolytically activated with recombinant human cathepsin L (R&D Systems, #952-CY). Briefly, cathepsin A was incubated at 10 μg/ml with cathepsin L at 1 μg/ml in activation buffer (25 mM 2-(morpholin-4-yl)-ethanesulfonic acid (MES), pH 6.0, containing 5 mM dithiothreitol (DTT)) for 15 min at 37° C.
The activated cathepsin A was diluted in assay buffer (25 mM MES, pH 5.5, containing 5 mM DTT) and mixed with the test compound (dissolved in assay buffer containing (v/v) 3% DMSO) or, in the control experiments, with the vehicle in a multiple assay plate. […]
Uncleaved substrate and product were then separated by a microfluidic capillary electrophoresis on a LabChip® 3000 Drug Discovery System (12-Sipper-Chip; Caliper Life Sciences) and quantified by determination of the respective peak areas. Substrate turnover was calculated by dividing product peak area by the sum of substrate and product peak areas, and the enzyme activity and the inhibitory effect of the test compound thus quantified.

IC50: 18 nM
Structure (SMILES): COc1cccc(OC)c1-c1cc(F)cc(C(CC(=O)O)c2ncco2)c1 (stereo not shown) [compound 98]
